According to PubChem BioAssay AID504847 (National Center for Advancing Translational Sciences (NCATS), 2011):
Out of some 400,000 compounds screened, about 3,700 (0.93%) were called active. Inconclusive results, whose numbers are uncertain, are shown with a selection of clear calls. The call rests on the fitted dose curve; in most records, active means well fitted inhibition curve with a large enough effect; inconclusive means small, poorly fitted or top-dose-only effect, or another doubt; inactive means no such curve, though single readings can be large or run the other way. Potencies beside an inconclusive call are fits to weak or partial responses and may not hold up.

Amino acid sequences for entries named in this document (tags omitted). A change or cut given only in a name is not applied to a line headed by its entry.
UniProt P11473: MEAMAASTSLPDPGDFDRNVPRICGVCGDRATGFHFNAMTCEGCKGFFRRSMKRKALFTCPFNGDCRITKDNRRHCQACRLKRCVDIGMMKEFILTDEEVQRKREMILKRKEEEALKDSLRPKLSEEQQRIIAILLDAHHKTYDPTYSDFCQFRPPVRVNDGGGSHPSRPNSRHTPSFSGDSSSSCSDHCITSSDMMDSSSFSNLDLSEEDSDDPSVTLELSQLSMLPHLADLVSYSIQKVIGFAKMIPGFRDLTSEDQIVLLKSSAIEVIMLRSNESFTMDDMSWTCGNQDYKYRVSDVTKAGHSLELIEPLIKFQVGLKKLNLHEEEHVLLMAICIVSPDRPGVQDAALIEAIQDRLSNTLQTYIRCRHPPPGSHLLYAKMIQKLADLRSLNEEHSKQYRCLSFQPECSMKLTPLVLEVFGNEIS

Each compound was assayed against Vitamin D3 receptor (Homo sapiens) (UniProt P11473) (assay: Inhibitors of the vitamin D receptor (VDR): qHTS). Settings: VDR-SRC2-3 peptide fluorescence polarization, 2 h; max response, negative = inhibition: stronger effect = lower value.
Method in brief: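 FP read-out; VDR + SRC2-3 coactivator peptide; 23 nl compound by pintool; 2 h RT incubation; reagents held at 4 deg C, protected from light.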
On the % scale 0 is the no-effect control and ±100 the full control effect; potency means the concentration at half of the fitted maximal effect.

| SMILES | max response, negative = inhibition | Potency |
| --- | --- | --- |
| COCCCn1c(=N)c(C(=O)NCc2ccco2)cc2c(=O)n3cccc(C)c3nc21 | inactive: -18.5% |  |
| O=C(NCCN1C(=O)S/C(=C\c2ccc(Cl)cc2Cl)C1=O)C1=COCCO1 |  | inconclusive: 56.2 µM [inhibitor, single point] |
| CC1(C)CC(=S)Nc2ccccc2S1 |  | inconclusive: 50.1 µM [inhibitor, partial curve] |
| CC(C)C[C@@H](CC(=O)N[C@H](CC(=O)N[C@@H]1CCNC[C@H]1C(=O)N[C@H](CC(=O)N[C@@H](CCC(=O)O)CC(=O)O)Cc1ccccc1)C(C)C)NC(=O)[C@@H]1CCCC[C@H]1N | inactive: 2.54% |  |
| CCCCN(C)CCCNC(=O)C1CCC(CNS(=O)(=O)c2c(C)cc(C)cc2C)CC1 (stereo not drawn) |  | inconclusive: 44.7 µM [inhibitor, partial curve, poor fit] |
| CN(CC(CC(=O)Nc1nncs1)c1ccccc1)S(=O)(=O)c1ccc(Br)cc1 (stereo not drawn) |  | inconclusive: 7.94 µM [inhibitor, partial curve, poor fit] |
| O=C(/C=C/c1ccco1)NC(=S)Nc1ccccc1Br |  | inconclusive: 89.1 µM [inhibitor, partial curve, poor fit] |
| CC(=O)Oc1ccc(N2C(=O)C3C4C=CC(C5CC45)C3C2=O)cc1[N+](=O)[O-] (stereo not drawn) |  | inconclusive: 79.4 µM [inhibitor, single point] |
| CCOC(=O)CNc1oc(-c2ccccc2)nc1-c1ccccc1 |  | inconclusive: 79.4 µM [inhibitor, partial curve] |
| COc1ccc(C(C2C(=O)CC(C)(C)CC2=O)C2C(=O)CC(C)(C)CC2=O)cc1 |  | active: 56.2 µM |
| Nc1nc(=S)ss1 |  | inconclusive: 12.6 µM [inhibitor, full curve, poor fit] |
| CC(=O)N(C(C)=O)c1ncnc2c1c(-c1ccc(Cl)cc1)nn2C(C)(C)C |  | active: 50.1 µM |
| CC(C)NCC(O)(c1ccc(Cl)cc1)c1ccc(Cl)cc1 | inactive: -1.94% |  |
| COc1cccc(NC(=S)N2CCN(c3ccccn3)CC2)c1 |  | inconclusive: 89.1 µM [inhibitor, single point] |
| CCCN(CC(=O)Nc1ccccc1OC)Cc1c(O)ccc2ccccc12 |  | inconclusive: 56.2 µM [inhibitor, partial curve, poor fit] |
| O=C(N/N=C\c1ccc([N+](=O)[O-])s1)C1COc2ccccc2O1 (stereo not drawn) | inactive: 0.977% |  |
| CC(C)(C)OC(=O)C(Cl)(C(=O)OC(C)(C)C)c1ccc2nnnn2n1 |  | inconclusive: 39.8 µM [inhibitor, single point] |
| O=C(O)c1nc2cc(Cl)c(Cl)cc2[nH]c1=O | inactive: 0.827% |  |

Taken from above.
For Potency, CCCN(CC(=O)Nc1ccccc1OC)Cc1c(O)ccc2ccccc12 has inconclusive: 56.2 µM [inhibitor, partial curve, poor fit]
For Potency, CCOC(=O)CNc1oc(-c2ccccc2)nc1-c1ccccc1 has inconclusive: 79.4 µM [inhibitor, partial curve]
